Values quoted from earlier work in patent publication US20250215015A1 (THE REGENTS OF THE UNIVERSITY OF CALIFORNIA, priority 2022, published 2025).
At least one compound was matched to its structure with a doubt left.

System: orthotopic GL262 GBM tumors
Conditions: adapted from Bai et al, 2011; cited from earlier work

Compound: Cn1nnc2c(C(N)=O)ncn2c1=O [Temozolomide]
- time by which all animals expired: ≤ 42 days
